From PMC8533325
Like-named read-outs stand apart in the source and are kept apart here. Results are given in words; binding and its absence hold for the method and conditions named. In cells and extracts the contact can be indirect. Some entries that bind do so weakly or less than the wild type. Sequences can lack the tags named with a protein.

Amino acid sequences for entries named in this document (tags omitted).
UniProt Q06609: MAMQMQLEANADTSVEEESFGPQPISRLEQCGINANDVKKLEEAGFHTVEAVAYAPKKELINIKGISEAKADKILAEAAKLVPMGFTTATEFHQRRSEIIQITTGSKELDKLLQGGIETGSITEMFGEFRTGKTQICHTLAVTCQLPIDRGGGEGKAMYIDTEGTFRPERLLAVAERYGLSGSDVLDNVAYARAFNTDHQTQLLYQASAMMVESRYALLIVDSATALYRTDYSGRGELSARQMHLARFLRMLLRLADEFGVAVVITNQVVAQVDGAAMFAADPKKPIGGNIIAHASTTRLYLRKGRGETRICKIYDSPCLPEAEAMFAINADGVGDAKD
UniProt P09884: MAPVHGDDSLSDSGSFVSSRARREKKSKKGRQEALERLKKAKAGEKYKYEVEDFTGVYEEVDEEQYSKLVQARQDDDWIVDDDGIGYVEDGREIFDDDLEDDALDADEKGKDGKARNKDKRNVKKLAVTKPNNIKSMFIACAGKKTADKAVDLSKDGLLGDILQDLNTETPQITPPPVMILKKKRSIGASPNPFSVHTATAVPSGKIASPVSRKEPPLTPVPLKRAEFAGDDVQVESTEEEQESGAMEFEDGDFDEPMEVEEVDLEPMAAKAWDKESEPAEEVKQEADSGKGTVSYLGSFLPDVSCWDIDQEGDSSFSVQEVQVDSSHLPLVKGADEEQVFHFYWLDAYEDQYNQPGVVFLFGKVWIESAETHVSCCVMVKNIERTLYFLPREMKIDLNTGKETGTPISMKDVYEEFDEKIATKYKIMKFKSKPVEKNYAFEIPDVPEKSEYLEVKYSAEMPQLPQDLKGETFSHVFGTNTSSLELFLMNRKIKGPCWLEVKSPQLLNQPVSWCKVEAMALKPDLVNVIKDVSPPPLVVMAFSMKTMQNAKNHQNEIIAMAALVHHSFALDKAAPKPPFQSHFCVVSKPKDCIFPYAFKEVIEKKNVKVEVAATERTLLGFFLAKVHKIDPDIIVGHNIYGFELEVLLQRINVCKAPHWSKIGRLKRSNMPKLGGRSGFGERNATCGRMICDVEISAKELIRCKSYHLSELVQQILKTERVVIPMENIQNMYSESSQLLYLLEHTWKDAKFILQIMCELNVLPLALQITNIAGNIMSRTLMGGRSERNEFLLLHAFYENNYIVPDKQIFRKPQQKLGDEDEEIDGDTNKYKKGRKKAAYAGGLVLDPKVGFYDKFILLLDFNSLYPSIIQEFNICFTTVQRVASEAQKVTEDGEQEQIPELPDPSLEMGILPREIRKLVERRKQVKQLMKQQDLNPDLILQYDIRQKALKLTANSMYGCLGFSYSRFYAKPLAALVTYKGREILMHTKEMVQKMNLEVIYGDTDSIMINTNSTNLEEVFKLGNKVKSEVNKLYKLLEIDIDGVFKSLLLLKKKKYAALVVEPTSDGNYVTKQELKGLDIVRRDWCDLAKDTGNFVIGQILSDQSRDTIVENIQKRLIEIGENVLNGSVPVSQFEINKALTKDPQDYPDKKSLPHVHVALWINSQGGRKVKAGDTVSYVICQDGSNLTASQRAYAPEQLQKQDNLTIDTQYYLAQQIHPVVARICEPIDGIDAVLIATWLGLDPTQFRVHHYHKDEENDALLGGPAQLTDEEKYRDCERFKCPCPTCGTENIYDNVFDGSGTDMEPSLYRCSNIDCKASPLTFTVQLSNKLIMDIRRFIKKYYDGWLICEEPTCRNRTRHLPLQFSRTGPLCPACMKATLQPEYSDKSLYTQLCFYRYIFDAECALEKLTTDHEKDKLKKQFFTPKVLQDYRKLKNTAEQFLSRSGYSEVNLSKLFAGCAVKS

T1: Myc-STN1 (WT) (human) (UniProt Q9H668)
T1 sequence: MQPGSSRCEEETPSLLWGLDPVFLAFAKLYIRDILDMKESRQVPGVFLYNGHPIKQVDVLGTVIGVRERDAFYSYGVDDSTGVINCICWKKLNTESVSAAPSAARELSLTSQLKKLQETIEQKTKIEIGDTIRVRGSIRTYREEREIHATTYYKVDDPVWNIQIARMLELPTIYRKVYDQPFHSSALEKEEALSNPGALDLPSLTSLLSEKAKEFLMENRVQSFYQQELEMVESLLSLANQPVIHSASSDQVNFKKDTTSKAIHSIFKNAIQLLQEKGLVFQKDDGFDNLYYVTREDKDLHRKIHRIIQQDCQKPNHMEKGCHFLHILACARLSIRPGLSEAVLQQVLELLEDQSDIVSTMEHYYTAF

T2: Myc-STN1 E95G (human) (UniProt Q9H668)
T2 sequence: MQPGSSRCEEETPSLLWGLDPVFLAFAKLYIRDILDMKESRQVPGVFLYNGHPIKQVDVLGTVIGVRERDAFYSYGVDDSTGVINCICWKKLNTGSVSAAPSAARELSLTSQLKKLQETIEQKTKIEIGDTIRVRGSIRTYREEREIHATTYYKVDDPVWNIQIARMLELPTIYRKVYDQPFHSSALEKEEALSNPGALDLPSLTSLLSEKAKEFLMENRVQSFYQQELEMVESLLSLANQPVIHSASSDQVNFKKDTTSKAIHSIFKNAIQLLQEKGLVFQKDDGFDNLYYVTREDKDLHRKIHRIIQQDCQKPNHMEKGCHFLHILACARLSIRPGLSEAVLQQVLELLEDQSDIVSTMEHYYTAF

T3: Myc-STN1 S111A (human) (UniProt Q9H668)
T3 sequence: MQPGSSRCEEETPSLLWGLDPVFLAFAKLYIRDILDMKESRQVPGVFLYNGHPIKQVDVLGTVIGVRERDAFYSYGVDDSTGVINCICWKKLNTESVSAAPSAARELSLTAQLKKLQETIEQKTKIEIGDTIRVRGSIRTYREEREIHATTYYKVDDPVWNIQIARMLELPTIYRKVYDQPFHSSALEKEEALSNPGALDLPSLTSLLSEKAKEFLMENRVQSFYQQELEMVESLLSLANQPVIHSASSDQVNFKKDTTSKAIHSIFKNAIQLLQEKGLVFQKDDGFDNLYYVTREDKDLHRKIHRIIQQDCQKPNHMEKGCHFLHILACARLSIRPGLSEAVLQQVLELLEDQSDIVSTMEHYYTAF

T4: Myc-STN1 T94A (human) (UniProt Q9H668)
T4 sequence: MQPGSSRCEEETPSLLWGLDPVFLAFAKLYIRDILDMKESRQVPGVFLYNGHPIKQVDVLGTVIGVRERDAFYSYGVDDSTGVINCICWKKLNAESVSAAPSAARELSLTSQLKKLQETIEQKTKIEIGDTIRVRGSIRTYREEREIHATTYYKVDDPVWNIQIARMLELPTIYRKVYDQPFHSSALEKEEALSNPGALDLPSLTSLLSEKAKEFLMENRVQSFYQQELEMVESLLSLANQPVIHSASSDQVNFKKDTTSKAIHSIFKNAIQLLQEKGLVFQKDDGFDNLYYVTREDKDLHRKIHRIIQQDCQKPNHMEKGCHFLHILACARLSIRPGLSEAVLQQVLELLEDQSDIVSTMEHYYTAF


How the values were obtained:
Test in all cases: co-IP; HEK293T cells co-transfected with Flag-CTC1, HA-TEN1 and WT or mutant Myc-STN1, treated with or without HU (2 mM; 16 h or 24 h); lysis in 0.1% NP-40, 50 mM Tris-HCl pH 7.4, 50 mM NaCl, 2 mM DTT; anti-Myc immunoprecipitation overnight at 4 °C; Western blot
[1] = target: T1, Myc-STN1 (WT) (human)
[2] = target: T2, Myc-STN1 E95G (human)
[3] = target: T3, Myc-STN1 S111A (human)
[4] = target: T4, Myc-STN1 T94A (human)
[5] = target: T1, Myc-STN1 (WT) (human); remark: listed apart in the source

| Molecule | binding [1] | binding [2] | binding [3] | binding [4] | binding [5] |
| --- | --- | --- | --- | --- | --- |
| RAD51 (from UniProt Q06609 1-339) | binds | – | – | – | – |
| HA-TEN1 (protein, UniProt Q86WV5 1-123) MMLPKPGTYYLPWEVSAGQVPDGSTLRTFGRLCLYDMIQSRVTLMAQHGSDQHQVLVCTKLVEPFHAQVGSLYIVLGELQHQQDRGSVVKARVLTCVEGMNLPLLEQAIREQRLYKQERGGSQ | – | – | – | – | binds |

Next, values leading:

| binding [1] | binding [2] | binding [3] | binding [4] | binding [5] | Molecule |
| --- | --- | --- | --- | --- | --- |
| binds | binds | binds | binds | – | POLA1 (from UniProt P09884 1-1462) |
| – | – | – | – | binds | Flag-CTC1 (protein, UniProt Q2NKJ3 1-1217) MAAGRAQVPSSEQAWLEDAQVFIQKTLCPAVKEPNVQLTPLVIDCVKTVWLSQGRNQGSTLPLSYSFVSVQDLKTHQRLPCCSHLSWSSSAYQAWAQEAGPNGNPLPREQLLLLGTLTDLSADLEQECRNGSLYVRDNTGVLSCELIDLDLSWLGHLFLFPRWSYLPPARWNSSGEGHLELWDAPVPVFPLTISPGPVTPIPVLYPESASCLLRLRNKLRGVQRNLAGSLVRLSALVKSKQKAYFILSLGRSHPAVTHVSIIVQVPAQLVWHRALRPGTAYVLTELRVSKIRGQRQHVWMTSQSSRLLLLKPECVQELELELEGPLLEADPKPLPMPSNSEDKKDPESLVRYSRLLSYSGAVTGVLNEPAGLYELDGQLGLCLAYQQFRGLRRVMRPGVCLQLQDVHLLQSVGGGTRRPVLAPCLRGAVLLQSFSRQKPGAHSSRQAYGASLYEQLVWERQLGLPLYLWATKALEELACKLCPHVLRHHQFLQHSSPGSPSLGLQLLAPTLDLLAPPGSPVRNAHNEILEEPHHCPLQKYTRLQTPSSFPTLATLKEEGQRKAWASFDPKALLPLPEASYLPSCQLNRRLAWSWLCLLPSAFCPAQVLLGVLVASSHKGCLQLRDQSGSLPCLLLAKHSQPLSDPRLIGCLVRAERFQLIVERDVRSSFPSWKELSMPGFIQKQQARVYVQFFLADALILPVPRPCLHSATPSTPQTDPTGPEGPHLGQSRLFLLCHKEALMKRNFCVPPGASPEVPKPALSFYVLGSWLGGTQRKEGTGWGLPEPQGNDDNDQKVHLIFFGSSVRWFEFLHPGQVYRLIAPGPATPMLFEKDGSSCISRRPLELAGCASCLTVQDNWTLELESSQDIQDVLDANKSLPESSLTDLLSDNFTDSLVSFSAEILSRTLCEPLVASLWMKLGNTGAMRRCVKLTVALETAECEFPPHLDVYIEDPHLPPSLGLLPGARVHFSQLEKRVSRSHNVYCCFRSSTYVQVLSFPPETTISIPLPHIYLAELLQGGQSPFQATASCHIVSVFSLQLFWVCAYCTSICRQGKCTRLGSTCPTQTAISQAIIRLLVEDGTAEAVVTCRNHHVAAALGLCPREWASLLDFVQVPGRVVLQFAGPGAQLESSARVDEPMTMFLWTLCTSPSVLRPIVLSFELERKPSKIVPLEPPRLQRFQCGELPFLTHVNPRLRLSCLSIRESEYSSSLGILASSC |
